At least one structure is not confirmed: it was looked up by name or label, or the drawing left a doubt.
System: corneal epithelial defects in the eyes of New Zealand white rabbits
Experiment: Rabbit corneal epithelial debridement model with healing impaired by topical dexamethasone (Example 1)
Format: in vivo
Settings: comparison of treatment arms over 5 days
Source text: A rabbit debridement model was used to assess the effect of topically applied rHGH on corneal epithelial defect closure in a model where epithelial closure was impaired by concomitantly administered topical steroids (Dexamethasone 0.1% QID). Standard epithelial defects were created in the eyes of nine New Zealand white rabbits by standard methods. Rabbits received topical dexamethasone QID (4×/day) to all 18 eyes. Rabbits were randomized to one of three treatment arms post surgery: a control arm of dexamethasone only QID OU (both eyes), a vehicle group of BSS (balanced salt solution) QID OU, and test article of rHGH QID OU. One drop (50 μL) of rHGH (reconstituted in Ringers Lactate to achieve a final concentration of 100 μg/mL) (n=3) was applied topically four times to both eyes. All eyes were also treated with one drop of an antibiotic solution after the surgical defect creation. Photographic assessment (twice daily) and fluorescein assessment were used to determine the speed and quality of epithelial defect closure. The corneal defect size was estimated in the photographs by obtaining the pixel count of the defect and dividing by the pixel count of the cornea. The animals were sacrificed on day 5. […]

## C[C@@H]1C[C@H]2[C@@H]3CCC4=CC(=O)C=C[C@]4(C)[C@@]3(F)[C@@H](O)C[C@]2(C)[C@@]1(O)C(=O)CO [dexamethasone, reference compound]
  speed of epithelial defect closure (photographic assessment): healed the slowest

Reference: patent publication US20140107025A1, “OCULAR DRUG DELIVERY SYSTEM” (priority 2012, published 2014)
